Measured values: PMC8946172
Construct, isoform or probe ends are uncertain for at least one entry. Results from cells or extracts need not show a direct contact. For part of these data: At least one verdict was read from the data and is not stated in words by the source. For part of these data: Protein sequences can lack the tags named with them.

Legend:
[1] = biological target: T1, Integrin alpha3 (CD49c), endogenous, from membrane fraction of TNBC cells (MDA-MB-231, HCC38, Hs578T mixture) (Homo sapiens) (UniProt P26006); assay: pull-down with streptavidin beads, silver stain, LC-MS/MS; settings: 5 mM Mg2+, enriched 1143-fold over random ssDNA (p = 1.3e-18); Pull-down: 1x PBS, 5 mM MgCl2, 1% Triton X-100, PMSF, protease inhibitors, 4 C overnight, 2 uM aptamer; protein in an extract; label: 5'-biotin; single-stranded DNA
T1 sequence (looked up, limits assumed): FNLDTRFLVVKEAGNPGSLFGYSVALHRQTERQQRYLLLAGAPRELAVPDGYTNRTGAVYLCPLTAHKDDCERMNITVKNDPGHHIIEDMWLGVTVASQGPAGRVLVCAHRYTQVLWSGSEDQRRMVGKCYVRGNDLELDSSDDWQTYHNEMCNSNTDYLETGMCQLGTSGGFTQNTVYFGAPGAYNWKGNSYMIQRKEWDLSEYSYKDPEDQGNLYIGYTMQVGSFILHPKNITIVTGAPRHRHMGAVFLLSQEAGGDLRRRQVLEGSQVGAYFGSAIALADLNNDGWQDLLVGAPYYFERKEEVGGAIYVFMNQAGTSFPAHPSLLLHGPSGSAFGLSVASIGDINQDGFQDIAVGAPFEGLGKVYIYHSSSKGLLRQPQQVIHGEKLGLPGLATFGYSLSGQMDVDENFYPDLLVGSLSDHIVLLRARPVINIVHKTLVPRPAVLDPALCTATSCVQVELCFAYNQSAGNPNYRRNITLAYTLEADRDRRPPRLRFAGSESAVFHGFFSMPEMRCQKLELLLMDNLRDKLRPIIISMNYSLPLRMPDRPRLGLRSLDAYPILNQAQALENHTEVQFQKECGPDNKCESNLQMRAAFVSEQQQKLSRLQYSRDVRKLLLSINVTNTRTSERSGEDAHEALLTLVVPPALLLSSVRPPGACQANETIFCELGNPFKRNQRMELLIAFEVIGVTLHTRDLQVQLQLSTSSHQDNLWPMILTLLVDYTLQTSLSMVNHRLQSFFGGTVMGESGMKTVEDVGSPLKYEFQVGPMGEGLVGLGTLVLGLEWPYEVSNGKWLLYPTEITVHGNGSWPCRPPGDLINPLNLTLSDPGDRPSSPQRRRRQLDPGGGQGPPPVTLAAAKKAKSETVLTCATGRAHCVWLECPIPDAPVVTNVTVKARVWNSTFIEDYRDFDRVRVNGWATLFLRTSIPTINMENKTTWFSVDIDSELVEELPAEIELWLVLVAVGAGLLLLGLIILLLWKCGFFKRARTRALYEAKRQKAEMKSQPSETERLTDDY

[2] = biological target: Integrin alpha3 (CD49c) on intact TNBC cells (MDA-MB-231, HCC38) (Homo sapiens) (UniProt P26006); assay: flow cytometry on cells, with anti-CD49c pre-incubation; settings: 200 nM aptamer, MDA-MB-231 and HCC38, binding not affected by anti-CD49c, 5 mM Mg2+; cell binding: 1x PBS, 5 mM MgCl2, 0.1 g/L yeast tRNA, 4.5 g/L glucose, 1 g/L BSA, RT 15-30 min; protein on the cell surface; label: 5'-FAM; single-stranded DNA
[3] = biological target: Integrin alpha3 (CD49c) on intact TNBC cells (MDA-MB-231, HCC38) (Homo sapiens) (UniProt P26006); assay: competition with PE-anti-CD49c (C3 II.1), flow cytometry; settings: 1 uM aptamer pre-incubated, reduces antibody binding to MDA-MB-231 and HCC38, 5 mM Mg2+; cell binding: 1x PBS, 5 mM MgCl2, 0.1 g/L yeast tRNA, 4.5 g/L glucose, 1 g/L BSA, RT 15-30 min; protein on the cell surface; label: 5'-Cy3; single-stranded DNA

ACACCAAAATCGTCCGTTTCGTTTTAGTCCGTCTCTTTAGGGTGT [biotinylated PDGC21T]
binding result [1]: binds

ACACCAAAATCGTCCGTTTCGTTTTAGTCCGTCTCTTTAGGGTGT [FAM-PDGC21T]
binding result [2]: binds

ACACCAAAATCGTCCGTTTCGTTTTAGTCCGTCTCTTTAGGGTGT [Cy3-PDGC21T]
binding result [3]: binds
